# PubChem BioAssay AID1259299, Sanger Institute – 2017
# Aim: 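Essential genes and drug-synergistic partners among kinases and colorectal mutation genes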 (primary screen)
# Cell system: human CAR1 colorectal cancer cells
# Reagent: siRNA pool against human genes
# Conditions: anchor drug BYL719 1 µM, cetuximab 5 µg/ml or trametinib 10 nM, or DMSO vehicle alone; exposure length not given
# Detection: 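Cell viability as fraction of non-targeting siRNA wells, mean of replicates, with robust z-score and a synergy score for each of three drugs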
# Reading the numbers: viability robust z-score, knock-down alone and viability, knock-down alone (DMSO): higher = more viable cells
# Hit rule: 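a gene is called essential if its knock-down-alone viability z-score drops under -3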
# Calls: active = essential (knock-down alone); inactive = no change
# Here is an unselected part of 794 deposited reagents. Over the whole deposit, 9 (1.1%) are marked active. 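Calls rest on knock-down alone; synergy scores play no part in calls, and no gene passed the synergy cut.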 No viability above 1 is reported: the scale is capped. Not all columns of the deposit are shown. Not stated in the record: the amount of reagent, the time to read-out.
gene knocked down,"viability robust z-score, knock-down alone","viability, knock-down alone (DMSO) (fraction of control)",outcome
MAP3K19 (GeneID 80122),0.218,0.947,inactive
OBSCN (GeneID 84033),0.789,1,inactive
CAMK2B (GeneID 816),-1.31,0.806,inactive
DCLK3 (GeneID 85443),0.789,1,inactive
THNSL1 (GeneID 79896),0.789,1,inactive
STK32A (GeneID 202374),-0.461,0.885,inactive
WNK1 (GeneID 65125),0.789,1,inactive
CDK4 (GeneID 1019),-0.928,0.841,inactive
CDKL1 (GeneID 8814),-0.0154,0.926,inactive
SMC1A (GeneID 8243),0.667,0.989,inactive
ACVR1 (GeneID 90),-0.162,0.912,inactive
PKLR (GeneID 5313),0.452,0.969,inactive
CKS1B (GeneID 1163),0.789,1,inactive
GAK (GeneID 2580),0.789,1,inactive
SIK1 (GeneID 150094),-0.277,0.902,inactive
CDK14 (GeneID 5218),-0.928,0.841,inactive
MERTK (GeneID 10461),-0.674,0.865,inactive
PKDCC (GeneID 91461),0.789,1,inactive
DGKK (GeneID 139189),0.789,1,inactive
RIPK4 (GeneID 54101),-0.454,0.885,inactive
CALM1 (GeneID 801),0.789,1,inactive
PIK3CB (GeneID 5291),-0.731,0.86,inactive
RPS6KA6 (GeneID 27330),0.703,0.992,inactive
PRKY (GeneID 5616),-1.29,0.808,inactive
PFKL (GeneID 5211),0.297,0.955,inactive
TYK2 (GeneID 7297),0.0733,0.934,inactive
MAPK1 (GeneID 5594),-0.953,0.839,inactive
DLG1 (GeneID 1739),0.789,1,inactive
BCOR (GeneID 54880),0.789,1,inactive
EPHB2 (GeneID 2048),0.789,1,inactive
PTPRU (GeneID 10076),-0.77,0.856,inactive
ROR1 (GeneID 4919),0.557,0.979,inactive
IRAK4 (GeneID 51135),-0.595,0.872,inactive
XYLB (GeneID 9942),-0.524,0.879,inactive
LTK (GeneID 4058),-0.092,0.919,inactive
NTRK3 (GeneID 4916),0.789,1,inactive
PAK5 (GeneID 57144),0.789,1,inactive
OXSR1 (GeneID 9943),-1.49,0.79,inactive
NME3 (GeneID 4832),0.789,1,inactive
PRKAR2A (GeneID 5576),-1.05,0.83,inactive
NME2 (GeneID 4831),0.789,1,inactive
TPD52L3 (GeneID 89882),0.789,1,inactive
NUP62 (GeneID 23636),-0.066,0.921,inactive
SGK2 (GeneID 10110),0.789,1,inactive
HUS1 (GeneID 3364),0.457,0.969,inactive
PGK1 (GeneID 5230),0.73,0.995,inactive
MAPKAPK2 (GeneID 9261),0.789,1,inactive
PRPS2 (GeneID 5634),0.232,0.949,inactive
TWF1 (GeneID 5756),0.265,0.952,inactive
DLG4 (GeneID 1742),-0.347,0.895,inactive
